About 220 (0.063%) of roughly 350,000 compounds were called active. Inconclusive results, whose numbers are uncertain, are shown with a selection of clear calls. The call rests on the fitted dose curve; in most records, active means well fitted activation curve with a large enough effect; inconclusive means small, poorly fitted or top-dose-only effect; inactive means no such curve, though single readings can be large or run the other way. Where the call is inconclusive, the potency comes from a doubtful curve fit.
assay: qHTS for Activators of Integrin-Mediated Alleviation for Muscular Dystrophy; details: alpha7betagal myoblasts, beta-gal FDG fluorescence, 48 h; activation: at 38.3 µM (top of the series); further: nearly all actives have a fitted effect of over 60% in size;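 on activation: 100% = response of the positive control SU9516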
In short: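 alpha7betagal+/- myoblasts (passage 13, 250/well) treated 48 h at 37C with compounds at 1:260 dilution of DMSO stock. Lysed, then beta-galactosidase activity read as FDG fluorescence (ex 480/em 540) after 30 min, with pre-read for autofluorescence.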
Potency means the concentration at half of the fitted maximal effect.

activation, inactive:
COc1ccc(C(=O)c2oc3ccc(OC)cc3c2N)cc1 17.5%
O=C(CNC(=O)c1ccc(OC(F)F)cc1)Nc1cccc(S(=O)(=O)N2CCCC2)c1 -22%
C=CCc1ccccc1OCC(=O)O -14.4%
CCCCc1cc(=O)oc2cc(OCc3nn[nH]n3)c(Cl)cc12 14.5%
Cc1ccc(NC(=O)c2cccnc2)cc1S(=O)(=O)N1CCOCC1 -11%
CC(Oc1cccc(Cl)c1)C(=O)Nc1cc(Cl)ccc1N1CCOCC1 (stereo unspecified) 5.99%
Fc1cc(F)nc(NCc2ccccc2)n1 -10.5%
Cc1cc(SCC(=O)NCCC2=CCCCC2)nc2ccccc12 -11.4%
CC(=O)Nc1sc2c(c1CN1CCCC1)CCCC2 0%
CC(=O)Nc1ccc(NC(=O)CCCSc2nc3ccccc3s2)cc1 1.12%
CCc1ccc2c(CN(CC)Cc3nc4ccccc4c(=O)[nH]3)cc(=O)oc2c1 -16.6%
O=C(N/N=C/c1ccccn1)c1sc2ccccc2c1Cl -57.7%
CCOC(=O)c1c(C)[nH]c(C)c1C(=O)COC(=O)Cc1n[nH]c(=O)c2ccccc12 2.23%
CCOc1cc(CNc2ccc(Br)cc2)cc(Br)c1OCC(=O)NC(C)(C)C -39.9%
Cc1cc[n+]2c3c(cccc13)CCC2 -23.7% [at 7.66 µM]
O=C(NNC(=S)Nc1ccccc1)NNC(=S)Nc1ccccc1 -24.7%
C=CCn1c(=S)[nH]c2sc3c(c2c1=O)CCC3 -10.4%

Potency, inconclusive:
COC(=O)c1sc(N)c(C(=O)OC)c1COC(=O)CNS(=O)(=O)c1ccc(C)cc1 8.91 µM [activator, partial curve, poor fit]
CSCC(=O)N1CCC(n2nccc2NC(=O)CCc2ccccc2)CC1 3.55 µM [activator, single point]
COc1cc([N+](=O)[O-])ccc1NC(=S)NC(=O)CC(C)(C)C 3.55 µM [activator, single point]
COCCCNC(=O)c1ccc2c(=O)n(Cc3ccc(OC)cc3)c(=O)[nH]c2c1 3.55 µM [activator, full curve, poor fit]
Cc1ccc(Nc2cc(C)nc3ccc(C)cc23)cc1 3.55 µM [activator, partial curve, poor fit]
CC1(C)CC(=O)N(c2cccc(C(F)(F)F)c2)C(=O)C1 28.2 µM [activator, single point]
CCC(=O)Nc1cccc2cccnc12 28.2 µM [activator, partial curve, poor fit]
N#Cc1ccccc1NC(=O)C1SC(=Nc2ccccc2)C(C(=O)Nc2ccc(Cl)cc2)=C1N (stereo unspecified) 0.501 µM [activator, full curve, poor fit]
CC(=O)c1ccc(NC(=S)N2CCN(S(=O)(=O)c3ccc(F)cc3)CC2)cc1 10 µM [activator, partial curve, poor fit]
CC(=O)NCC1(O)CCCC(C)C1 (stereo unspecified) 5.01 µM [activator, single point]
CCCn1cc(S(=O)(=O)c2ccc(OC)cc2)c(=O)c2cc(OC)ccc21 3.98 µM [activator, full curve, poor fit]
COc1cccc(NC(=O)CN2CCc3ccccc3C2)c1 28.2 µM [activator, single point]
COc1cc(SC)ccc1C(=O)Nc1ncc(C)s1 3.16 µM [activator, single point]
O=C(Cn1nc(C(F)F)cc1C(F)F)NNC(=S)Nc1ccc([N+](=O)[O-])cc1 5.01 µM [activator, single point]
Cc1ccc(NC(=O)NCc2cccnc2)cc1C 2.82 µM [activator, partial curve, poor fit]
O=C(NCc1cccnc1)Nc1ccc(Cl)cc1Cl 11.2 µM [activator, single point]
O=C(Nc1nnc(S(=O)(=O)Nc2ccccc2)s1)c1ccccc1Cl 14.1 µM [activator, single point]
CCOc1c(Nc2ccc(C(C)C)cc2)c(=O)c1=O 10 µM [activator, partial curve]
Cc1ccc(N=CC2=C(O)CC(C)(C)CC2=O)nc1 5.01 µM [activator, single point]
COc1ccc(CCC(=O)NCC(=O)OCc2ccccc2)cc1 10 µM [activator, single point]
Cc1cc(N/C(=N/S(=O)(=O)c2ccc(F)cc2)c2ccccc2)n(-c2ccccc2)n1 8.91 µM [activator, single point]
COc1cc(-c2[nH]ncc2CN2CCN(c3cccc(C)n3)CC2)cc(OC)c1OC 22.4 µM [activator, single point]
COc1cc(Br)c(S(=O)(=O)Nc2c(C)n(C)n(-c3ccccc3)c2=O)cc1OC 1.26 µM [activator, partial curve, poor fit]
Cc1ccc(C2N=C(N)Nc3nc(=O)c4ccccc4n32)cc1 (stereo unspecified) 3.16 µM [activator, full curve, poor fit]
CN(C)c1ccc(NC(=O)C(=O)C2C(=O)Nc3ccccc32)cc1 (stereo unspecified) 0.794 µM [activator, single point]
CCOc1ccccc1OCC(=O)Nc1ccc(Cl)cc1Cl 28.2 µM [activator, single point]
O=C(Cn1cnnn1)Nc1cccc([N+](=O)[O-])c1 2 µM [activator, partial curve, poor fit]
Cc1cc(NC(=O)COC(=O)c2cc(S(=O)(=O)N(C)c3ccccc3)ccc2Cl)no1 5.01 µM [activator, single point]
CC(=O)c1ccc(NC(=O)CN2C(=O)NC3(CCCc4ccccc43)C2=O)cc1 (stereo unspecified) 12.6 µM [activator, single point]

Sorted by molar mass (rising): some entries from above.
Potency, inconclusive:
Cc1ccc(NC(=O)NCc2cccnc2)cc1C 2.82 µM [activator, partial curve, poor fit]
CN(C)c1ccc(NC(=O)C(=O)C2C(=O)Nc3ccccc32)cc1 (stereo unspecified) 0.794 µM [activator, single point]
N#Cc1ccccc1NC(=O)C1SC(=Nc2ccccc2)C(C(=O)Nc2ccc(Cl)cc2)=C1N (stereo unspecified) 0.501 µM [activator, full curve, poor fit]

— PubChem BioAssay AID624291 (National Center for Advancing Translational Sciences (NCATS), 2012)
